Assay results taken from publication PMC9950143 (Scientific Reports, 2023).

Assays:
[1] = test system: HeLa cells; settings: human
[2] = human plasma maximum concentration; ref [1]–[19]; cited from earlier work

SMILES	RDV CC50 when combination [1] [nM]	RDV CC50 when in combination [1] [nM]	Cmax [2]
O=C(O)c1cn(C2CC2)c2cc(N3CCNCC3)c(F)cc2c1=O [Ciprofloxacin]	> 2500	> 2500	4600 [8] ng/mL
CN1C(=O)CN=C(c2ccccc2)c2cc(Cl)ccc21 [Diazepam]	> 2500	> 2500	492 [9] ng/mL
